Reference: article PMC4971335
Results are given in words; binding and its absence hold for the method and conditions named. Binding seen in cells or lysates may run through a third protein. Here binding means that the protein was enriched with, or labelled near, the bait; the list need not be complete. Sequences can lack the tags named with a protein.

Amino acid sequences for entries named in this document (tags omitted).
UniProt Q6PEC4: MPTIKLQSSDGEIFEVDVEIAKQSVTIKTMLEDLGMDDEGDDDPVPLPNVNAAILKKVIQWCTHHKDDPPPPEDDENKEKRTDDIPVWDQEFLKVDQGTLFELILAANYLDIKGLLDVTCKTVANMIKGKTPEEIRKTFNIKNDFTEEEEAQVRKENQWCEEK

Legend:
[1] = target: T1, glutathione-S-transferase-fused wild-type aryl hydrocarbon receptor interacting protein (AIP) (human) (UniProt O00170); experiment: affinity purification with mass spectrometry; pull-down from rat GH-secreting GH3 cells with glutathione-S-transferase-fused WT and mutant AIP as baits, followed by quantitative mass spectrometry; only the target purified
T1 sequence: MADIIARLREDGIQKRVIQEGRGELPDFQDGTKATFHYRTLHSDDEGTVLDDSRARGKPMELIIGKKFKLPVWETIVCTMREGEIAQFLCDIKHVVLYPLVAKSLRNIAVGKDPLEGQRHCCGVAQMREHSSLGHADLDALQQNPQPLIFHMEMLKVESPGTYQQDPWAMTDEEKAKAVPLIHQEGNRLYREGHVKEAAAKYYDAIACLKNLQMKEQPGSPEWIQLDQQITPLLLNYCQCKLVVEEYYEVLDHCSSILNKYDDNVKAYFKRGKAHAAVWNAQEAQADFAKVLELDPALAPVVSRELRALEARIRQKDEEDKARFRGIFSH

[2] = target: T2, glutathione-S-transferase-fused AIP p.R304* mutant (human) (UniProt O00170); experiment: as above
T2 sequence: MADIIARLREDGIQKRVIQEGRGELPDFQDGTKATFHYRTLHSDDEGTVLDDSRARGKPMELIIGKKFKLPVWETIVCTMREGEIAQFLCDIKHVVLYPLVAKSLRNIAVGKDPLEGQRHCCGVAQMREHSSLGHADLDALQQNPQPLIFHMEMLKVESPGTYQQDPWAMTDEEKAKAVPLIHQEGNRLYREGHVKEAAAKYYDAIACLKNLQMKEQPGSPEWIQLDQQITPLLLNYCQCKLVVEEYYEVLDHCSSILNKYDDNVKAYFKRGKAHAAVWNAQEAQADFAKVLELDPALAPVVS

Molecule	binding [1]	binding [2]
SKP1 (from GH3 cells) (from UniProt Q6PEC4 1-163)	binds	binds
F-box containing protein FBXO3 (from GH3 cells) (protein, UniProt D4ABP9 1-480) MAAVEAETGLLTLESLPTDPLLLILSFVDYRDLINCCYVSRRLSQLSTHDPLWRRHCKKYWLITEEEKARKNQCWKSLFIATYSDVGRYINHYAAIKKAWDDLKKYLEPRCPRMVLSLKEGAREEDLDAVEAQIGCKLPDDYRCSYRIHNGQKLVVPGLLGSMALSNHYRSEDLLDVDTAAGGFQQRQGLKYCLPLTFCIHTGLSQYIAVEAAEGRNKNEVFYQCPDQMARNPAAIDMFIIGATFTDWFTSYVNNVVSGGFPIIRDQIFRYIHDPECVATTGDITVSVSTSFLPELSSVHPPHYFFTYRIRIEMSRDALPEKACQLDSRYWRITNAKGDVEEVQGPGVVGEFPIISPGRIYEYTSCTTFSTTSGYMEGYYTFHFLYFKDKVFNVAIPRFHMACPTFRVSIARLEMGPDEYEEMEEEAEEEEEEENDDSADMDESDESDEDENESDEGEGEERRRRVFDVPIRRRRCSRLF	binds	binds
